Measured values reported in PubChem BioAssay (NCATS).
This is one part of the list. Further columns of the screen follow, without active or inactive calls. Most of these compounds were active or inconclusive in the main read-out, so they are no random draw. Words in brackets tell the shape of the fitted curve; partial curves, single points and poor fits give uncertain potencies.

assay: S16 Schwann cell PMP22 intronic element beta-lactamase assay (AID 624044); conditions: S16 rat Schwann cells, PMP22 element beta-lactamase FRET, 24 h; measured here: 460 nm blue channel
Summary of the method: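 Rat S16 Schwann cells with beta-Lac driven by a PMP22 intronic element, compound-treated 24 h at 37 °C. LiveBLAzer FRET B/G read: 460 nm normalized to potassium clavulanate vs DMSO; 535 nm FRET as viability; concentration-effect curves classified.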

| Compound | AC50 |
| --- | --- |
| CCCCCCCCCCCC(CC1OC(=O)C1CCCCCC)OC(=O)C(CC(C)C)NC=O (configuration not stated) | 12.6 µM [falling, partial curve] |
| CC(C[N+](C)(C)C)OC(N)=O (configuration not stated) | 0.398 µM [falling, full curve, poor fit] |
| O=C(O)c1cc(O)c2c(c1)[C@H]([C@H]1c3cc(C(=O)O)cc(O)c3C(=O)c3c(O[C@@H]4OC(CO)C(O)C(O)C4O)cccc31)c1cccc(O[C@@H]3OC(CO)C(O)C(O)C3O)c1C2=O (some centres not stated) | 5.62 µM [falling, full curve, poor fit] |
| OCC1O[C@H](O[C@H]2C(O)C(O)C(O)O[C@@H]2CO)C(O)C(O)C1O (some centres not stated) | 0.0501 µM [falling, full curve, poor fit] |
| Cc1c(Nc2ncccc2C(=O)O)cccc1C(F)(F)F | 10.7 µM [falling, single point] |
| C=C(NC(=O)C(=C)NC(=O)c1csc(C2=N[C@@H]3c4csc(n4)[C@@H]4NC(=O)c5csc(n5)[C@@H]([C@](C)(O)[C@H](C)O)NC(=O)[C@@H]5CSC(=N5)/C(=C/C)NC(=O)[C@@H]([C@H](C)O)NC(=O)c5csc(n5)[C@]3(CC2)NC(=O)[C@@H](C)NC(=O)C(=C)NC(=O)[C@@H](C)NC(=O)[C@@H]([C@@H](C)CC)N[C@H]2C=Cc3c([C@H](C)O)cc(nc3[C@@H]2O)C(=O)O[C@H]4C)n1)C(N)=O | 13.4 µM [falling, single point] |
| CC[C@@]1(O)CC2CN(CCc3c([nH]c4ccccc34)[C@](C(=O)OC)(c3cc4c(cc3OC)N(C)C3[C@@](O)(C(=O)OC)C(OC(C)=O)[C@]5(CC)C=CCN6CC[C@@]43C65)C2)C1 (some centres not stated) | 0.562 µM [falling, full curve] |

An excerpt of these results, with tabs:
Compound	AC50
Cc1c(Nc2ncccc2C(=O)O)cccc1C(F)(F)F	10.7 µM [falling, single point]
C=C(NC(=O)C(=C)NC(=O)c1csc(C2=N[C@@H]3c4csc(n4)[C@@H]4NC(=O)c5csc(n5)[C@@H]([C@](C)(O)[C@H](C)O)NC(=O)[C@@H]5CSC(=N5)/C(=C/C)NC(=O)[C@@H]([C@H](C)O)NC(=O)c5csc(n5)[C@]3(CC2)NC(=O)[C@@H](C)NC(=O)C(=C)NC(=O)[C@@H](C)NC(=O)[C@@H]([C@@H](C)CC)N[C@H]2C=Cc3c([C@H](C)O)cc(nc3[C@@H]2O)C(=O)O[C@H]4C)n1)C(N)=O	13.4 µM [falling, single point]
